Data reported in patent US20140221283A1 (Indiana University Research and Technology Corporation, priority 2011, published 2014).
At least one peptide structure holds a part that was inferred or is arguable (an end, a ring closure or a residue).

Sequences of proteins named here, by UniProt entry; tags and fusion partners are left off. Residues count along the entry.
UniProt P47871, 26-477: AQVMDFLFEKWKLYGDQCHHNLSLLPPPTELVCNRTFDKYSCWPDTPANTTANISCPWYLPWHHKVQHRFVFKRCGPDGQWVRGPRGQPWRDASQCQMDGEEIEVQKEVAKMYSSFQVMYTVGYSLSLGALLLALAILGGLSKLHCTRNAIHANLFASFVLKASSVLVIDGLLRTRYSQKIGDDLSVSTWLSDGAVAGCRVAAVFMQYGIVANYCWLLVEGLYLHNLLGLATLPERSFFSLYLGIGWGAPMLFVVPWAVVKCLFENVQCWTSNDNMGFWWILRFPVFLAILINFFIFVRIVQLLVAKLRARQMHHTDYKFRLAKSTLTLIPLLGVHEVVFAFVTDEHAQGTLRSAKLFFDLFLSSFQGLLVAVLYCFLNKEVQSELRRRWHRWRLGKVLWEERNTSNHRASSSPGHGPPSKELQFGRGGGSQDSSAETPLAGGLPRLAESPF
UniProt P43220, 24-463: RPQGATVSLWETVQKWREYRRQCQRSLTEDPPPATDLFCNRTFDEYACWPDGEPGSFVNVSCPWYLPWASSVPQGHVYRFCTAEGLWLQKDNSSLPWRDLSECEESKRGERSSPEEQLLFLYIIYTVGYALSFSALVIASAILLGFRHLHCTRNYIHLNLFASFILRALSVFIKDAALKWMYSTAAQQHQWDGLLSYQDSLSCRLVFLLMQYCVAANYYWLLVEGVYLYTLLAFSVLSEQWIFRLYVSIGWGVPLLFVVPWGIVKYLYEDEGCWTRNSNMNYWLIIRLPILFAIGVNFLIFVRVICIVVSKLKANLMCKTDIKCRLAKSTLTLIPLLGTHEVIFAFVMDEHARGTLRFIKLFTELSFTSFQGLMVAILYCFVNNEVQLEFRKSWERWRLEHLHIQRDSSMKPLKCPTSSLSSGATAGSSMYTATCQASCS

Assays:
Assay type in all cases: cell-based
GIP receptor = target: T1, GIP receptor (Homo sapiens, UniProt P48546); assay: firefly luciferase-based cAMP reporter assay, HEK293 cells, GIP receptor (Example 3); details: procedure of Example 3
T1 construct: expressed in transfected cells; host or cells: HEK293
T1 sequence (P48546 22-466): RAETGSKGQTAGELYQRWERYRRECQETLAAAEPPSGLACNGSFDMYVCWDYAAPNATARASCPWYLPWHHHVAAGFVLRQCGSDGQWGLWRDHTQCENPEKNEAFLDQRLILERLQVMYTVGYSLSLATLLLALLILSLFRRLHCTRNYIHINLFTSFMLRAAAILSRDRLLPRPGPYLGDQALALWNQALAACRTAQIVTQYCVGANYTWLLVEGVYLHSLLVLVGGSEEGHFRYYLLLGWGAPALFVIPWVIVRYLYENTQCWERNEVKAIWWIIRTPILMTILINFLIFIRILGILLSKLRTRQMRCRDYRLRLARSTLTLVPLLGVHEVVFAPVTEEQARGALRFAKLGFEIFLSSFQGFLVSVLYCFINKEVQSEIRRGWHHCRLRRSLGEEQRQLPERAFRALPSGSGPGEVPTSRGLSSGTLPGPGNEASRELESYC
Experimental: It is understood that a lower EC50 indicates higher activity or potency at the receptor.
(§1) The ability of each peptide to induce cAMP was measured in a firefly luciferase-based reporter assay.
(§2) At the end of the incubation, 100 μL of LucLite luminescence substrate reagent (Perkin Elmer, Wellesley, Mass.) were added to each well.
In some instances, the in vitro agonist activity at the GIP receptor was also tested.

glucagon receptor = target: T2, glucagon receptor (Homo sapiens, UniProt P47871); assay: firefly luciferase-based cAMP reporter assay, HEK293 cells co-transfected with glucagon receptor (Example 3); details: read-out: EC50 (nM) at glucagon receptor, procedure of Example 3
T2 construct: expressed in transfected cells; host or cells: HEK293
Experimental: as §1, §2

human GLP-1R = human GLP-1R (Homo sapiens, UniProt P43220); assay: firefly luciferase-based cAMP reporter assay, HEK293 cells co-transfected with GLP-1 receptor (Example 3); design: expressed in transfected cells; host or cells: HEK293; details: read-out: EC50 (nM) at GLP-1 receptor, procedure of Example 3
Experimental: as §1, §2

## CCCCCCCCCCCCCCCC(=O)N[C@@H](CCC(=O)N[C@@H](CCC(=O)NCCCC[C@H](NC(=O)[C@H](CC(=O)O)NC(=O)[C@H](CO)NC(=O)[C@@H](NC(=O)[C@H](Cc1ccccc1)NC(=O)[C@@H](NC(=O)CNC(=O)[C@H](CCC(N)=O)NC(=O)C(C)(C)NC(=O)[C@@H](N)Cc1c[nH]cn1)[C@@H](C)O)[C@@H](C)O)C(=O)N[C@@H](CO)C(=O)N[C@@H](CCCCN)C(=O)N[C@@H](Cc1ccc(O)cc1)C(=O)N[C@@H](CC(C)C)C(=O)N[C@@H](CC(=O)O)C(=O)NC(C)(C)C(=O)N[C@@H](CCCNC(=N)N)C(=O)N[C@@H](C)C(=O)N[C@@H](C)C(=O)N[C@@H](CCC(N)=O)C(=O)N[C@@H](CC(=O)O)C(=O)N[C@@H](Cc1ccccc1)C(=O)N[C@H](C(=O)N[C@@H](CCC(N)=O)C(=O)N[C@@H](Cc1c[nH]c2ccccc12)C(=O)N[C@@H](CC(C)C)C(=O)N[C@@H](CC[S+](C)[O-])C(=O)N[C@@H](CC(=O)O)C(=O)N[C@H](C(=O)N[C@@H](CCCCN)C(=O)N[C@@H](CCC(N)=O)C(=O)O)[C@@H](C)O)C(C)C)C(=O)O)C(=O)O (stereo partly drawn) [SEQ ID NO: 15]
GIP receptor
  EC50: 1.9 nM
Glucagon receptor
  EC50: 0.006 nM
Human GLP-1R
  EC50: 0.005 nM
